The text below walks through data of PubChem BioAssay AID1487 (National Center for Advancing Translational Sciences (NCATS), 2009).

This test is described as follows: qHTS Assay for Modulators of Lamin A Splicing. The conditions noted are these: HeLa LMNA splicing GFP/RFP minigene ratio, 48 h. The method in brief:
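Read-out is the ratio of GFP to DsRed2 object intensity, acquired by 488 nm laser-scanning cytometry on HeLa lamin A-EGFP minigene reporter cells. Compound incubation 48 hrs at 37 °C in Opti-MEM with 2% FBS; DMSO 0.5% final.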
(In qHTS, concentration-response curves come from the screen itself.)

Where [1] appears, read: measured here: GFP splicing reporter channel.
Setting [2] is: measured here: RFP viability control channel.

Values joined by “and” are separate entries in the source; they are usually repeats but may differ in a detail not shown here. Identical values can stand only once. Some of the results follow. Shown are side measurements of this screen, not its main read-out; they come without a call. The list favours compounds with an active or inconclusive main result. Potencies come from curve fits of mixed quality, noted in brackets.

One may read the AC50 as the concentration giving half of the maximal activity seen. For the molecule `CCOC(=O)c1ccc(NCc2ccc3c(c2)OCO3)cc1`, the concentration at half-maximal activity (AC50) under setting [1] is 25.1 µM [rising, single point] and the AC50 under setting [2] is 35.5 µM [rising, single point]. Take `COc1ccc(C(=O)/C=C/C(=O)N(Cc2ccccc2)C(C(=O)NC2CCCCC2)c2ccncc2)c(O)c1` (centres undefined): under setting [2], the AC50 is 10 µM [rising, partial curve, poor fit].

With `CC(C)OC(=O)CC(=O)CSc1nc(-c2ccc(F)cc2)cc(-c2ccccc2)c1C#N`, the AC50 under setting [2] was 12.6 µM [rising, partial curve, poor fit].

As for `O=C(Nc1ccc(F)cc1)c1cnc(-c2ccccc2)nc1-c1ccccc1`, the AC50 runs as follows: under setting [1], 15.8 µM [falling, single point]; under setting [2], 17.8 µM [falling, partial curve].

For the molecule `Cc1csc(N(C(=O)c2cccc(S(=O)(=O)N(C)C)c2)c2ccccc2)n1`, the half-maximal activity concentration (AC50) under setting [2] was 35.5 µM [rising, single point]. As to `O=[N+]([O-])c1cc(S(=O)(=O)c2ccc(N3CCCCC3)c([N+](=O)[O-])c2)ccc1N1CCCCC1`, the AC50 reads like this: under setting [1], 2.82 µM [rising, full curve]; under setting [2], 4.47 µM [rising, full curve]. `COc1cccc(/C=N/NC(=O)c2ccc(-c3ccccc3)cc2)c1O`: the AC50 under setting [2] was 5.01 µM [rising, full curve, poor fit]. On to `C#C[C@]1(O)CC[C@H]2C3CCC4=Cc5oncc5CC4(C)C3CCC21C` (some centres undefined), for which the half-maximal activity concentration (AC50) under setting [1] is 0.178 µM [rising, full curve] and the concentration at half-maximal activity (AC50) under setting [2] is 0.178 µM [rising, full curve, poor fit]. For `O=C(Cn1ncn2c(cc3ccccc32)c1=O)NCc1ccco1`, the concentration at half-maximal activity (AC50) under setting [2] was 11.2 µM [falling, partial curve, poor fit]. Turning to `Cc1ccc(-n2nnnc2SCC(=O)N2c3ccccc3NC(=O)C2(C)C)cc1`, the AC50 under setting [1] was 11.2 µM [rising, single point]. Regarding `CCOC(=O)/C(=N\Nc1ccc(C(C)=O)cc1)c1csc(Nc2ccccc2)n1`, the AC50 under setting [2] is 2.82 µM [falling, full curve]. With `O=S1(=O)c2cccc3cccc(c23)N1Cc1nnc(-c2ccccc2Br)o1`, the concentration at half-maximal activity (AC50) is 2.82 µM [rising, full curve, poor fit] under setting [1] and 5.62 µM [rising, full curve] under setting [2]. In the case of `O=C(CSc1ncccc1C(=O)Oc1ccccc1Cl)Nc1ccccc1Cl`, under setting [2], the AC50 is 1.41 µM [falling, partial curve]. As for `CC(C)Nc1nc(NC(C)C)nc(N(C#N)CCOc2ccc(Cl)cc2Cl)n1`, the AC50 under setting [2] was 35.5 µM [rising, single point].

On to `CN(C)CCC=C1c2ccccc2C=Cc2ccccc21`, for which the AC50 under setting [1] was 28.2 µM [falling, partial curve, poor fit]. In the case of `O=C(CSc1nnc(-c2ccccc2O)n1Cc1ccccc1)NNC(=O)c1ccccc1O`, the AC50 under setting [2] is 35.5 µM [rising, single point]. `CC(=O)NC1=NN(C(C)=O)C(C)(c2ccc(Cl)s2)S1` (centres undefined): the half-maximal activity concentration (AC50) under setting [2] is 3.16 µM [rising, full curve].

In the case of `CC1CC(N(C(=O)c2ccc(Cl)cc2)c2ccccc2)c2ccccc2N1C(=O)c1ccco1` (centres undefined), the AC50 under setting [2] is 35.5 µM [rising, single point]. `CCCCNc1nnc(SCC(=O)c2c[nH]c3ccccc23)s1`: the AC50 was 5.62 µM [rising, partial curve, poor fit] under setting [1] and 25.1 µM [rising, partial curve, poor fit] under setting [2]. Consider `CO[C@]1(NC(=O)[C@H](C(=O)O)c2ccc(O)cc2)C(=O)N2C(C(=O)O)=C(CSc3nnnn3C)CO[C@H]21`, for which the concentration at half-maximal activity (AC50) under setting [1] is 0.0316 µM [rising, full curve, poor fit].

With `O=C(OCC#CCSc1nnc(-c2ccc(Br)cc2)o1)c1cccs1`, the AC50 runs as follows: under setting [1], 11.2 µM [rising, single point]; under setting [2], 12.6 µM [rising, single point]. On to `O=C(Nc1ccc(C(O)(C(F)(F)F)C(F)(F)F)cc1)c1ccc(Cl)c([N+](=O)[O-])c1`, for which the AC50 under setting [2] was 35.5 µM [rising, partial curve]. In the case of `O=S(=O)(c1ccc2ccccc2c1)N(CC(O)CN1CCOCC1)c1ccccc1` (centres undefined), under setting [1], the AC50 was 6.31 µM [rising, partial curve]. Turning to `O=C(Nc1ccc2c(c1)OCO2)c1ccc(Br)c(S(=O)(=O)N2CCCC2)c1`, the AC50 under setting [2] was 5.62 µM [rising, full curve]. `CN(C)/N=N\c1nc[nH]c1C(N)=O`: the AC50 runs as follows: under setting [1], 0.01 µM [falling, full curve]; under setting [2], 0.00631 µM [falling, full curve]. Regarding `CN(C)S(=O)(=O)N1CCN(S(=O)(=O)c2ccc3ccccc3c2)CC1`, under setting [2], the half-maximal activity concentration (AC50) is 7.94 µM [rising, partial curve, poor fit]. Still for that read-out and setting: the result for `CCOc1ccc(-n2c(O)c(/C=N/NC(=O)C3COc4ccccc4O3)c3ccccc3c2=O)cc1` (centres undefined) reads 15.8 µM [rising, single point].

Regarding `O=C(COc1ccc(F)cc1)OCc1cc(=O)n2nc(-c3cccs3)sc2n1`, the AC50 under setting [1] is 0.00355 µM [falling, full curve, poor fit]. For `O=C(CN1C(=O)c2ccccc2C1=O)Nc1cc([N+](=O)[O-])ccc1O`, the AC50 was 0.1 µM [falling, full curve, poor fit] under setting [1] and 0.0398 µM [falling, full curve] under setting [2].

As to `Cc1ccccc1NC(=S)NCCc1ccccc1`, under setting [2], the AC50 was 31.6 µM [rising, single point]. Turning to `COc1ccc(CN2C(=O)/C(=C/c3ccncc3)SC2=S)cc1`, the AC50 under setting [1] was 11.2 µM [rising, partial curve, poor fit] and the concentration at half-maximal activity (AC50) under setting [2] is 14.1 µM [rising, partial curve]. In the case of `Cc1onc(-c2ccccc2Cl)c1C(=O)Nc1sc2c(c1C(N)=O)CCC(C)C2` (centres undefined), the AC50 is 20 µM [rising, single point] under setting [1] and 28.2 µM [rising, single point] under setting [2]. For `COc1ccc(CCn2c(-c3ccco3)nc3nc4ccccc4nc32)cc1OC`, the half-maximal activity concentration (AC50) under setting [2] was 20 µM [rising, partial curve, poor fit].

For the molecule `CCOC(=O)N1CCC(N2CCN(S(=O)(=O)c3ccc4ccccc4c3)CC2)CC1`, the concentration at half-maximal activity (AC50) under setting [2] was 22.4 µM [rising, single point]. With `COCCn1c(SCc2nnc(-c3ccccc3)o2)nc2sc3c(c2c1=O)CCC3`, the half-maximal activity concentration (AC50) under setting [1] was 12.6 µM [rising, single point]. `CCN(CC)S(=O)(=O)c1cc(C)c(C)cc1Br`: the concentration at half-maximal activity (AC50) under setting [2] was 35.5 µM [rising, single point]. As to `Cc1ccc(NC(=O)Cn2cccc2C2=NC(c3ccccc3)CO2)cc1C` (centres undefined), the half-maximal activity concentration (AC50) under setting [2] is 15.8 µM [rising, single point]. Take `CCN(CC)C(=O)c1ccc(/C=C/c2c[nH]c3ccccc23)[n+](C)c1`: the AC50 under setting [2] is 8.91 µM [rising, partial curve, poor fit]. For `COc1cc(C(=O)OCC(C)=O)ccc1OCc1c(C)noc1C`, the concentration at half-maximal activity (AC50) under setting [2] was 7.94 µM [rising, partial curve, poor fit]. With `Cc1cccc(C)c1NC(=O)[C@H](C)N`, the AC50 reads like this: under setting [1], 0.00398 µM [falling, full curve, poor fit]; under setting [2], 1.58 µM [falling, single point]. For `CCOC(=O)c1ccc(NCc2nc3ccccc3[nH]2)cc1`, the AC50 reads like this: under setting [1], 20 µM [rising, single point]; under setting [2], 17.8 µM [rising, single point]. On to `NS(=O)(=O)c1cc2c(cc1Cl)NCNS2(=O)=O`, for which the concentration at half-maximal activity (AC50) under setting [2] was 0.794 nM [falling, full curve, poor fit] and 4.47 nM [falling, full curve, poor fit]. Regarding `Cc1ccc(NC(=O)CSc2nnc(-c3n[nH]c4ccccc34)n2-c2ccccc2)c(C)c1`, the AC50 under setting [1] was 35.5 µM [falling, single point].

In the case of `Cc1ccc(NC(=O)c2scc3c2CCCC3)cc1`, the concentration at half-maximal activity (AC50) under setting [1] was 22.4 µM [rising, single point] and the AC50 under setting [2] is 25.1 µM [rising, single point]. For the molecule `C[N+]1(C)CCC(=C(c2ccccc2)c2ccccc2)CC1`, the half-maximal activity concentration (AC50) by setting is: under setting [1], 0.000891 µM [falling, full curve, poor fit]; under setting [2], 14.1 µM [falling, single point]. On to `COc1ccccc1N1CCN(C(=O)CSc2ncnc3scc(-c4ccccc4)c23)CC1`, for which the AC50 runs as follows: under setting [1], 14.1 µM [rising, partial curve, poor fit]; under setting [2], 17.8 µM [rising, partial curve]. Turning to `O=C(Nc1ccc(Cl)cc1)c1ccc(-n2cccn2)c([N+](=O)[O-])c1`, the AC50 under setting [2] was 14.1 µM [rising, single point]. For the molecule `O=c1cc(-c2ccccc2)n2c(SCc3ccccc3Cl)nnc2[nH]1`, the AC50 under setting [2] was 0.0398 µM [rising, full curve]. In the case of `CN1C(c2ccc(F)cc2)=CS/C1=C(\C#N)c1nnc2n1-c1ccccc1SC2`, the AC50 was 6.31 µM [rising, partial curve] under setting [1] and 12.6 µM [rising, partial curve] under setting [2]. `COC(=O)c1c(C)[nH]c(C(=O)OCC(=O)NCC(C)C)c1C`: the AC50 under setting [2] was 14.1 µM [rising, single point]. As to `CCOC(=O)N1CCN(C(=O)c2ccc3nc4ccc(Cl)cc4c(=O)n3c2)CC1`, under setting [2], the AC50 was 14.1 µM [rising, partial curve].

Consider `Cc1c(Cl)cccc1NC(=O)CSc1nc(=O)n(Cc2ccco2)c2c1CCC2`, for which the AC50 under setting [1] was 35.5 µM [falling, partial curve]. For `O=S(=O)(c1ccc(N2CCOCC2)nc1)N(Cc1ccccn1)Cc1ccccn1`, the AC50 under setting [2] is 0.447 µM [falling, full curve, poor fit]. Turning to `COc1cccc(NC(=O)/C=C/c2ccccc2[N+](=O)[O-])c1`, the AC50 was 17.8 µM [rising, single point] under setting [1] and 20 µM [rising, single point] under setting [2]. As to `CCOC(=O)/C(=C/C=C1\Sc2cc(C)c(C)cc2N1CC)C(C)=O`, the AC50 is 35.5 µM [falling, single point] under setting [1] and 31.6 µM [falling, single point] under setting [2].
